The list shows a part of the results.
compound: c1cn2cc(-c3ccc4cn[nH]c4c3)nc(Nc3ccc(N4CCOCC4)cc3)c2n1 [entospletinib]; test: log2 fold change, soluble protein after heating vs DMSO (PISA); higher = thermal stabilisation; K562 lysate, 10 uM; active = over 0.2 and 3.5 SD of the protein, either way, in both replicates (recomputed)
Method in brief: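 Following dounce homogenisation of K562 pellets in PBS pH 7.4 with 1 mM MgCl2, crude extract at 1 mg/mL protein was incubated for 30 min with 10 μM compound. Aliquots were then heated for 3 min over 48°C-58°C and pooled, NP-40 was added to 0.5% at 4°C, and soluble protein was recovered as the supernatant at 21,000xg for 90 min. Channel-sum-equalised TMTpro 16plex LC-MS/MS quantified this protein. Each value, from duplicates, is a log-two fold change in thermal stability relative to solvent controls.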

By UniProt entry, the sequences of proteins in these tests, tags left out. Where a name states a change or a piece, a line headed by the entry shows the natural chain unless it says otherwise.
UniProt O75052: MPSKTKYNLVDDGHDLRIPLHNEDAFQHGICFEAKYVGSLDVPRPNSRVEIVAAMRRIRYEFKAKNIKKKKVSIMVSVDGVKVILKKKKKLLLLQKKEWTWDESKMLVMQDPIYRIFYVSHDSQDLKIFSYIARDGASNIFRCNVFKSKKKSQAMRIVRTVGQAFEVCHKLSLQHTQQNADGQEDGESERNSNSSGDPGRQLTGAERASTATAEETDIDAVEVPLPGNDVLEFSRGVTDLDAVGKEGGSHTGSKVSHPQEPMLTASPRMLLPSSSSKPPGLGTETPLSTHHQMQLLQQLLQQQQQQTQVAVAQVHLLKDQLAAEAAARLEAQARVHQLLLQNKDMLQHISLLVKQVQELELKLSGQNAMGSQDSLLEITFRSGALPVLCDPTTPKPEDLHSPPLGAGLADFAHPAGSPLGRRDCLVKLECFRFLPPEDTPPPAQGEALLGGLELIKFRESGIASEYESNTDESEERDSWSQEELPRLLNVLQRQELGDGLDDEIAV
UniProt Q8IVD9: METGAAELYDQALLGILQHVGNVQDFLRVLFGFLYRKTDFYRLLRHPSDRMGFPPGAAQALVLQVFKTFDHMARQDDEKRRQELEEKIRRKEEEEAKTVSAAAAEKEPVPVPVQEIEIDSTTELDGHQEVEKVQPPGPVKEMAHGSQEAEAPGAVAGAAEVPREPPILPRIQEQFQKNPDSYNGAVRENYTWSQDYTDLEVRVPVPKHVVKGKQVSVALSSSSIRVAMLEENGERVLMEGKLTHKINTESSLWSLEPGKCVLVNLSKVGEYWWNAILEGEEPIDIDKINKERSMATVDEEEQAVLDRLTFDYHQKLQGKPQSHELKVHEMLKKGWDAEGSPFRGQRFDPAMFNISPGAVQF
UniProt Q9Y266: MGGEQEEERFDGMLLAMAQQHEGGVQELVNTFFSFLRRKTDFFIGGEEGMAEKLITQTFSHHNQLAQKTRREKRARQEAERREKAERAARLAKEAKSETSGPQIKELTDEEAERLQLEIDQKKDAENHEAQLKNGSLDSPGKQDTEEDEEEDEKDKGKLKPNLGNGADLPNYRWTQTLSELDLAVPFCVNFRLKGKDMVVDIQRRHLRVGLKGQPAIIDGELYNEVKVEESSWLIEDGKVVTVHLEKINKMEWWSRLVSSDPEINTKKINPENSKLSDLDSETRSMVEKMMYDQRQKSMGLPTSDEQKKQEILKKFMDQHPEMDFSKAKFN
UniProt O75414: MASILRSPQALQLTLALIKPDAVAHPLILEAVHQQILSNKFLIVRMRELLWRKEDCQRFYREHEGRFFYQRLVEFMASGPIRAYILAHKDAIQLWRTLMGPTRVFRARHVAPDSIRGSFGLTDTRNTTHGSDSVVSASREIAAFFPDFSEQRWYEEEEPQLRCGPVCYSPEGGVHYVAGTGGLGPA
UniProt Q9Y2X3: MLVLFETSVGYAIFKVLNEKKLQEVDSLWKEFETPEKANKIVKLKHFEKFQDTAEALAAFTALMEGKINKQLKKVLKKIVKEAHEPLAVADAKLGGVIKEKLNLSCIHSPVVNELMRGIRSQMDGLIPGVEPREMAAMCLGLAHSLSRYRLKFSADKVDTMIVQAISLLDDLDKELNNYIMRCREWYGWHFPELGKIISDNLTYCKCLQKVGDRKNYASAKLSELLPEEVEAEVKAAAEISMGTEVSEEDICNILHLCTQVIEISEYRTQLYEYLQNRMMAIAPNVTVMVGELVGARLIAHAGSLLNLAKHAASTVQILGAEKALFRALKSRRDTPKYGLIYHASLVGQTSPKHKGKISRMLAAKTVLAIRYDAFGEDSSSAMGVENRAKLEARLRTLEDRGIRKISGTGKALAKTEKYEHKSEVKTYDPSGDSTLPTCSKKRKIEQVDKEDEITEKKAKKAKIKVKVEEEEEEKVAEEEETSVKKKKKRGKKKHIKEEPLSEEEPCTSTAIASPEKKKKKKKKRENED
UniProt P48645: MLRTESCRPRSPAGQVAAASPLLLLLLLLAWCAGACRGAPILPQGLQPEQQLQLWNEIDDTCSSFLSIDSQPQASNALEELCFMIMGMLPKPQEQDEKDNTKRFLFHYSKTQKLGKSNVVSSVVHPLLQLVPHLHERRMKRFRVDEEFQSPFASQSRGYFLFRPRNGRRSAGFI
UniProt Q9H6R4: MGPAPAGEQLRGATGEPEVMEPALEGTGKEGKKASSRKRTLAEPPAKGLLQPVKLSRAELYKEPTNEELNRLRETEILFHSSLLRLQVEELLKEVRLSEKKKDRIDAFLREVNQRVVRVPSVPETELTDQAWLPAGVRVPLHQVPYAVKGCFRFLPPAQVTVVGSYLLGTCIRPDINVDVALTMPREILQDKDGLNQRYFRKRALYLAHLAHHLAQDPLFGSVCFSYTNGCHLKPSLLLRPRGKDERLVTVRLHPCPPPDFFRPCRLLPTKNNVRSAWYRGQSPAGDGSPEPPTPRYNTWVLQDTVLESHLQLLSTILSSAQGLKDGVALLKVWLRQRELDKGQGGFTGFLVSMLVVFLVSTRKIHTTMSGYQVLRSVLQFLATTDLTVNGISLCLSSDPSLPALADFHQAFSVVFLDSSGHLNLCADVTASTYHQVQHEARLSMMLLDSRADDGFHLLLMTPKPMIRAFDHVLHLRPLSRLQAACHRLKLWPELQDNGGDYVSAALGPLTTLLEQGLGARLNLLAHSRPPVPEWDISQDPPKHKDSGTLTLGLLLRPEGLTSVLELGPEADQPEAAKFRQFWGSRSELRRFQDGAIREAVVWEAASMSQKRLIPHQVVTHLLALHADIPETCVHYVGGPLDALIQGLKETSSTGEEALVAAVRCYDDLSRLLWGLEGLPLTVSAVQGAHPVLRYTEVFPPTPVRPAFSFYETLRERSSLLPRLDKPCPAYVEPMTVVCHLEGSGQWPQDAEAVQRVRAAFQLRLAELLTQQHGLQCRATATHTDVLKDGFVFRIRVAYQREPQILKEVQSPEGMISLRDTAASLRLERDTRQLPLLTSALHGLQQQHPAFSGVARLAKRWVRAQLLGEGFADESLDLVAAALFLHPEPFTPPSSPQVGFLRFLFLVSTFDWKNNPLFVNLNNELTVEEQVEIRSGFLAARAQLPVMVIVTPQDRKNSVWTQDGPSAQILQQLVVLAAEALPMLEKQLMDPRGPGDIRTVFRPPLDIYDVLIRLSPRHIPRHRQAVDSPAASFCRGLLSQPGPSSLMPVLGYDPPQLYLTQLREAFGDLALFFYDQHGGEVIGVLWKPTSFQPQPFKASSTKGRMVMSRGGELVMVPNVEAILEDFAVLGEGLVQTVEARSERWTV
UniProt O75694: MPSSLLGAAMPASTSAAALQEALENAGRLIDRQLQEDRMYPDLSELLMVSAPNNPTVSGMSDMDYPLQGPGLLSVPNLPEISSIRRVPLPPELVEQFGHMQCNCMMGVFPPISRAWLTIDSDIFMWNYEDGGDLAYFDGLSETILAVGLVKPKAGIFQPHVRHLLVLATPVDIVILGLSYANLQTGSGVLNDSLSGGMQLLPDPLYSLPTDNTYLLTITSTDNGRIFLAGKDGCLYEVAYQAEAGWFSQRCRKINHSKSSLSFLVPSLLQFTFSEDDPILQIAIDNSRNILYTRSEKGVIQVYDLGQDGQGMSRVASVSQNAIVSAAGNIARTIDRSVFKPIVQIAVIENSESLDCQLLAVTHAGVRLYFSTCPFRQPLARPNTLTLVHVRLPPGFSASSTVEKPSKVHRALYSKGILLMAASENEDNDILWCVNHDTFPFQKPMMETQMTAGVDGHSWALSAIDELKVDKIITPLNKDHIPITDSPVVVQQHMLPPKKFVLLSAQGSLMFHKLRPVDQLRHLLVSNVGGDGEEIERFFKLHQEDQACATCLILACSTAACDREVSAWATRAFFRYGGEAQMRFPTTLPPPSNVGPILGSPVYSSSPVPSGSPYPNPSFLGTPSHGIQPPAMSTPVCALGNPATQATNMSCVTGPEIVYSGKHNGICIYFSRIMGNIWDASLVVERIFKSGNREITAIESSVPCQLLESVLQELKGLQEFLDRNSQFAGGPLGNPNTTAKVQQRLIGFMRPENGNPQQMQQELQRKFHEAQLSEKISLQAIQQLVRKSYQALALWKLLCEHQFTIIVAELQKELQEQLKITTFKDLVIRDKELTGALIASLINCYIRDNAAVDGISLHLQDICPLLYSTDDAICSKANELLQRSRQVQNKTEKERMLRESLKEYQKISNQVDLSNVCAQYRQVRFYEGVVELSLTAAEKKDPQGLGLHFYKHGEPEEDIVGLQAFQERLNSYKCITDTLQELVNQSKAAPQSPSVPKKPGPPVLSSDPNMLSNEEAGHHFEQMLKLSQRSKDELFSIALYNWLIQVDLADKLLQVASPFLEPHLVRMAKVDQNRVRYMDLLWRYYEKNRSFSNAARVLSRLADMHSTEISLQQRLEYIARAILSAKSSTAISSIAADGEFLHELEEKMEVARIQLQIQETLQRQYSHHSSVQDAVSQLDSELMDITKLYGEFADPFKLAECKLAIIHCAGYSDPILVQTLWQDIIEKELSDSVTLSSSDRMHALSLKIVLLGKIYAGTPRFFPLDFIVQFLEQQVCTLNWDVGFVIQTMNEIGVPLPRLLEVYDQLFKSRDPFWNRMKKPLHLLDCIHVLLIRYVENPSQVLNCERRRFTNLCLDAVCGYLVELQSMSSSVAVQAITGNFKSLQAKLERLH
UniProt Q8TAT6: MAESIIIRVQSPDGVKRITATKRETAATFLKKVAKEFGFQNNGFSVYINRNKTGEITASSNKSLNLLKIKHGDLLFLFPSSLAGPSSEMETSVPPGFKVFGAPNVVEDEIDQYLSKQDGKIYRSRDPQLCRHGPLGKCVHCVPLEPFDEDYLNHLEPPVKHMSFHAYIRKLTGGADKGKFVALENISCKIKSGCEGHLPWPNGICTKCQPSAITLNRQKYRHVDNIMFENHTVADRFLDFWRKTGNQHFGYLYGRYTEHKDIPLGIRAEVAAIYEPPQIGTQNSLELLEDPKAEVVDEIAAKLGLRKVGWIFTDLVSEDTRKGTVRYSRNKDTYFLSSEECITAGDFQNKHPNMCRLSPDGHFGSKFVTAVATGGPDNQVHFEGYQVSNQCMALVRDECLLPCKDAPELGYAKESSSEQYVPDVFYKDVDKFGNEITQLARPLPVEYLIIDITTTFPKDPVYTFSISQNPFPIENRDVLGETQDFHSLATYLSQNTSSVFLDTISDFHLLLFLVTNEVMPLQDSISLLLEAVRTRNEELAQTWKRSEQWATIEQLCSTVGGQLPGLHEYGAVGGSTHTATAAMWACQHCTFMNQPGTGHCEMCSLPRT
UniProt Q8WV22: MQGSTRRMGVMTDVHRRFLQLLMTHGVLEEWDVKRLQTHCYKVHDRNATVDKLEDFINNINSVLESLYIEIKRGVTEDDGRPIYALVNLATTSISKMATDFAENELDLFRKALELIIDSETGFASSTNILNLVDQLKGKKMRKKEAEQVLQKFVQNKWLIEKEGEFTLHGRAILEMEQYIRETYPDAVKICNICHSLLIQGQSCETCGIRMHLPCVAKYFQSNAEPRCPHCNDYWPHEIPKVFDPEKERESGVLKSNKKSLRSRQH
UniProt Q8IVI9: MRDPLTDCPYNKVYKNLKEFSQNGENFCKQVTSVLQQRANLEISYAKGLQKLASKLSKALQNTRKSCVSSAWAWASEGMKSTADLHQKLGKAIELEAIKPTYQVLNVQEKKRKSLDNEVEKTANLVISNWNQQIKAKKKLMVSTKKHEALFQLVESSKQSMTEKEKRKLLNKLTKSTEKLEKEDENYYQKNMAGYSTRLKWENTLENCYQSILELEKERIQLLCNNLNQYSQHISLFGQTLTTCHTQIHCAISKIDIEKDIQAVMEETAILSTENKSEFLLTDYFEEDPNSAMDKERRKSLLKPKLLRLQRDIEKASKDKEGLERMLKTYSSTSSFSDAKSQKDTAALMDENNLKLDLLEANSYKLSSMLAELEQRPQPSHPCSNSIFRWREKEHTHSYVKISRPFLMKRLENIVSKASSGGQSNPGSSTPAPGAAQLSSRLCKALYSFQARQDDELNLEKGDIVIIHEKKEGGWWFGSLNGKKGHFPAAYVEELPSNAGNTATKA
UniProt Q96DE0: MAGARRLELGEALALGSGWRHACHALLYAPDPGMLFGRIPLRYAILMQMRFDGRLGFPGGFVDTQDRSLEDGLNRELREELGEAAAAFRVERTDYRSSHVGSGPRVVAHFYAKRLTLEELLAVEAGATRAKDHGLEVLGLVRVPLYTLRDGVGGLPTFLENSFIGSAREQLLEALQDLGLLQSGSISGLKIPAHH
UniProt O95989: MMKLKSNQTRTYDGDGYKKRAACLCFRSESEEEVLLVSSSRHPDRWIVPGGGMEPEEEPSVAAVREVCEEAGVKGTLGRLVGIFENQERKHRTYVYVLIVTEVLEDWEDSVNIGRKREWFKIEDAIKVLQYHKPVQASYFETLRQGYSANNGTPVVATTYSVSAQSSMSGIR
UniProt O43809, whole entry, looked up: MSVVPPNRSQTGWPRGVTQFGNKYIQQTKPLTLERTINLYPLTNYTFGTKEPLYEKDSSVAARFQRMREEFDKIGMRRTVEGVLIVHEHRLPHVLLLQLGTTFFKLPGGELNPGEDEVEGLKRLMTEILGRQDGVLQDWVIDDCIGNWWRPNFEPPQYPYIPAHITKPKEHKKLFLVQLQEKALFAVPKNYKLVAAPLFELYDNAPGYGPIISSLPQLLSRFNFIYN

log2 fold change, inactive:
NOS1AP (UniProt O75052) -0.033
NUDCD3 (UniProt Q8IVD9) 0.006
NOC4L (UniProt Q9BVI4) 0.029
NUDC (UniProt Q9Y266) -0.014
NRBP1 (UniProt Q9UHY1) -0.025
NT5C3B (UniProt Q969T7) -0.031
NME6 (UniProt O75414) -0.12
NOP58 (UniProt Q9Y2X3) 0.007
NMU (UniProt P48645) -0.027
NSMCE3 (UniProt Q96MG7) 0.049
NT5C3A (UniProt Q9H0P0) 0.032
NOL6 (UniProt Q9H6R4) 0.021
NUP155 (UniProt O75694) 0.039
NPLOC4 isoform 2 (UniProt Q8TAT6) 0.031
NT5C (UniProt Q8TCD5) 0.025
NUDT4 (UniProt Q9NZJ9) -0.01
NSMCE1 (UniProt Q8WV22) 0
NOSTRIN (UniProt Q8IVI9) 0.018
NMRAL1 (UniProt Q9HBL8) 0.012
NUDT16 (UniProt Q96DE0) -0.053
NUDT3 (UniProt O95989) 0.007
NTHL1 (UniProt P78549) 0.14
NUMB (UniProt P49757) 0
NUDT21 (UniProt O43809) -0.007

Two entries picked at random from those above, as already listed:
log2 fold change, inactive:
NUMB (UniProt P49757) 0
NMRAL1 (UniProt Q9HBL8) 0.012

Source: the supplement of paper PMC10849652
